Test results published in PubChem BioAssay AID330 (DTP/NCI, 2004).
The list is a part of this screen's results and no random one: it is rich in T/C values a quarter to a half above the control, in often repeated tests (any T/C) and in doses without a T/C. Further doses and runs are listed elsewhere. T/C: endpoint of the treated group in % of that of the vehicle group. Some entries give survivors of the animals treated and no T/C: the source holds a T/C of zero for them, seemingly a mark for toxic or unscored doses. Some survivor counts are full or nearly so, which does not show that the dose was tolerated: the source hardly ever lists a survival T/C far under the control, and the zero likely stands for such cases as well. Counts of survivors are from the toxicity check (mostly the fifth day) where no day follows; animals may have died later. Schedule codes are those of the source, read here as Q, the interval in days (D) or hours (H), X, the number of doses. Some entries hold several experiments; the values are given in rising order. For survival time, the PubChem record calls one and a half times the control and up active, and a quarter to a half above the control has no call in these data; cut-offs in other NCI protocols can differ. Some T/C values carry the count of animals alive at the toxicity check (mostly the fifth day); where none is given, no animal had died by that day.

Tested on: P388 leukemia ip, CD2F1 mice, survival T/C
Assay: NCI In Vivo Anticancer Drug Screen. Data for tumor model P388 Leukemia (intraperitoneal) in CD2F1 (CDF1) mice
Settings: T/C endpoint: median survival time, higher T/C = longer survival
[1] = dose: 50.0 mg/kg/injection, schedule: Q01DX005 (ip), vehicle: Klucel (hydroxypropylcellulose) (HPC)
[2] = dose: 100.0 mg/kg/injection, schedule: Q01DX005 (ip), vehicle: Klucel (hydroxypropylcellulose) (HPC)
[3] = dose: 200.0 mg/kg/injection, schedule: Q01DX005 (ip), vehicle: Klucel (hydroxypropylcellulose) (HPC)
[4] = dose: 60.0 mg/kg/injection, schedule: Q01DX005 (ip), vehicle: saline with Tween-80
[5] = dose: 120.0 mg/kg/injection, schedule: Q01DX005 (ip), vehicle: saline with Tween-80
[6] = dose: 240.0 mg/kg/injection, schedule: Q01DX005 (ip), vehicle: saline with Tween-80
[7] = dose: 200.0 mg/kg/injection, schedule: Q01DX009 (ip), vehicle: saline with Tween-80
[8] = dose: 400.0 mg/kg/injection, schedule: Q04DX003 (ip), vehicle: saline with Tween-80

C=C1C(=O)OC2C(OC(C)=O)C1C(OC(=O)C(C)CC)[C@]1(C)C(=O)C=C[C@H]1[C@@H]2C (stereo partly specified)
T/C (dose: 3.12 mg/kg/injection, schedule: Q01DX005 (ip), vehicle: Klucel (hydroxypropylcellulose) (HPC)): 129 % of control
survivor count (dose: 25.0 mg/kg/injection, schedule: Q01DX005 (ip), vehicle: Klucel (hydroxypropylcellulose) (HPC)): 3 of 6
survivor count [1]: 0 of 6
survivor count [2]: 0 of 6
survivor count [3]: 0 of 6

CCOC(=O)Nc1ccc(SCC2COC(Cn3ccnc3)(c3ccc(Cl)cc3Cl)O2)cc1 (stereo unspecified)
T/C [4]: 143 % of control
survivor count (dose: 100.0 mg/kg/injection, schedule: Q01DX001 (ip), vehicle: saline): 0 of 6
survivor count [5]: 6 of 6
survivor count (dose: 200.0 mg/kg/injection, schedule: Q01DX001 (ip), vehicle: saline): 0 of 6
survivor count [6]: 4 of 6
survivor count (dose: 400.0 mg/kg/injection, schedule: Q01DX001 (ip), vehicle: saline): 0 of 6

CCCCCCCCCCCCCCCCSc1ccncc1NN=O
survivor count [7]: 4 of 6

CN(N=O)C(=O)Nc1cc(=O)[nH]c(SCc2ccccc2)n1
T/C [1]: 134 % of control
T/C [2]: 143 % of control
survivor count [3]: 3 of 6

COc1c(C=O)c2c(c(OC)c1OC)-c1ccc(OC)c(=O)cc1[C@@H](NC(C)=O)CC2
T/C (dose: 0.39 mg/kg/injection, schedule: Q01DX009 (ip), vehicle: Klucel (hydroxypropylcellulose) (HPC)): 149 % of control
T/C (dose: 0.78 mg/kg/injection, schedule: Q01DX009 (ip), vehicle: Klucel (hydroxypropylcellulose) (HPC)): 149 % of control

CCc1nc(N)nc(N)c1-c1ccc(NC)c(N)c1
survivor count (dose: 400.0 mg/kg/injection, schedule: Q04DX002 (ip), vehicle: Klucel (hydroxypropylcellulose) (HPC)): 0 of 6

Nc1nc(N)c(N=O)c(Nc2ccc(Cl)c(Cl)c2)n1
survivor count [8]: 3 of 6

CC(C)N(C)N=Nc1ccc(C(N)=O)cc1
T/C (dose: 100.0 mg/kg/injection, schedule: Q01DX009 (ip), vehicle: Klucel (hydroxypropylcellulose) (HPC)): 129 % of control
T/C (dose: 200.0 mg/kg/injection, schedule: Q01DX009 (ip), vehicle: Klucel (hydroxypropylcellulose) (HPC)): 127 and 145 % of control
survivor count (dose: 300.0 mg/kg/injection, schedule: Q01DX009 (ip), vehicle: Klucel (hydroxypropylcellulose) (HPC)): 4 of 6
survivor count (dose: 400.0 mg/kg/injection, schedule: Q01DX009 (ip), vehicle: Klucel (hydroxypropylcellulose) (HPC)): 5 of 6

CCC1=C[C@H]2CN(CCc3c([nH]c4ccccc34)[C@@](C(=O)OC)(c3cc4c(cc3OC)N(C)[C@H]3[C@@](O)(C(=O)NCCSC)[C@H](O)[C@]5(CC)C=CCN6CC[C@]43[C@@H]65)C2)C1
T/C (dose: 1.0 mg/kg/injection, schedule: Q01DX001 (ip), vehicle: water): 125 % of control
T/C (dose: 4.0 mg/kg/injection, schedule: Q01DX001 (ip), vehicle: water): 135 and 139 % of control
T/C (dose: 8.0 mg/kg/injection, schedule: Q01DX001 (ip), vehicle: water): 148 and 148 % of control [5 of 6 alive]

CCCCCN(C)/N=N/c1nc[nH]c1C(N)=O
T/C (dose: 264.0 mg/kg/injection, schedule: Q04DX003 (ip), vehicle: saline with Tween-80): 136 % of control

COC1=CC(=O)c2ncc(Cl)cc2C1=O
survivor count [5]: 0 of 6 and 3 of 6
survivor count [6]: 0 of 6

C1CCC(N2CSC3CCCCC32)CC1 (stereo unspecified)
survivor count (dose: 240.0 mg/kg/injection, schedule: Q01DX005 (ip), vehicle: Klucel (hydroxypropylcellulose) (HPC)): 0 of 6

CCN(CC)c1nc(Cl)nc(NC(C)C)n1
survivor count [8]: 4 of 6

CCCCCCCCCCCC(=O)OCCN1CCN(CCCN2c3ccccc3Sc3ccc(C(F)(F)F)cc32)CC1
survivor count (dose: 50.0 mg/kg/injection, schedule: Q01DX009 (ip), vehicle: saline with Tween-80): 5 of 6
survivor count [7]: 5 of 6

CN1C(NC(=O)C(C)(C)O)C(C)(C)C(C)(C)C1NC(=O)C(C)(C)O (stereo unspecified)
T/C [4]: 131 % of control
T/C [5]: 132 % of control
T/C [6]: 139 % of control
